Source: publication doi:10.1101/2025.11.17.688911

Molecular target: taxol-stabilised microtubules polymerised from porcine brain tubulin (pig)
Assay: cryo-EM structure; 1.5 μM taxol-MTs on the grid, then 6 μM MAP9-MTBD, then 6 μM KIF1A (1–393) in 2 mM AMP-PNP; 3D focused classification on one tubulin dimer; both purified

binding: binds
B1: KIF1A motor domain, monomeric (mTurquoise2::Human KIF1A (1–393)::strepII) (domain or fragment, UniProt Q12756 1-393)
chain: MAGASVKVAVRVRPFNSREMSRDSKCIIQMSGSTTTIVNPKQPKETPKSFSFDYSYWSHTSPEDINYASQKQVYRDIGEEMLQHAFEGYNVCIFAYGQTGAGKSYTMMGKQEKDQQGIIPQLCEDLFSRINDTTNDNMSYSVEVSYMEIYCERVRDLLNPKNKGNLRVREHPLLGPYVEDLSKLAVTSYNDIQDLMDSGNKARTVAATNMNETSSRSHAVFNIIFTQKRHDAETNITTEKVSKISLVDLAGSERADSTGAKGTRLKEGANINKSLTTLGKVISALAEMDSGPNKNKKKKKTDFIPYRDSVLTWLLRENLGGNSRTAMVAALSPADINYDETLSTLRYADRAKQIRCNAVINEDPNNKLIRELKDEVTRLRDLLYAQGLGDITD

No constants are given. Whether binding was seen depends on the method and setting. Binding can be weak; no strength is given.
